Experimental data published in PubChem BioAssay AID192 (DTP/NCI, 2004).
The list does not hold the whole screen: it is rich in T/C values a quarter to a half above the control, in often repeated tests (any T/C) and in doses without a T/C. Further doses and runs are listed elsewhere. T/C is the treated group as % of the vehicle group. Some doses have a count of surviving animals in place of a T/C: the source holds a T/C of zero for them, seemingly a mark for toxic or unscored doses. Some doses without a T/C left all or most animals alive at the check, yet need not have been tolerated: the source hardly ever lists a survival T/C far under the control, and the zero likely stands for such cases as well. Survivors were counted at the toxicity check, usually on the fifth day, unless a day is given; later deaths do not show. Schedules are NCI's codes, read here as Q, the interval in days (D) or hours (H), X, the number of doses. Some entries hold several experiments; the results are listed from low to high. Signs of the kind (2×) give the number of equal values in this list. For survival time, this PubChem deposit counts one and a half times the control or more as active, and values a quarter to a half above the control carry no call in these data; other NCI protocols may use other cut-offs. Some T/C values carry the count of animals alive at the toxicity check (mostly the fifth day); where none is given, no animal had died by that day.

Test system: BDF1 mice, B16 melanoma ip, median survival T/C
Assay: NCI In Vivo Anticancer Drug Screen. Data for tumor model B16 Melanoma (intraperitoneal) in B6D2F1 (BDF1) mice
Conditions: T/C endpoint: median survival time, higher T/C = longer survival
Outline: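 Each result divides a survival or tumor-size measurement in the compound-treated group by the same measurement in the vehicle group.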

CC[C@]1(O)C[C@H]2CN(CCc3c([nH]c4ccccc34)[C@@](C(=O)OC)(c3cc4c(cc3OC)N(C=O)[C@H]3[C@@](O)(C(=O)OC)[C@H](OC(C)=O)[C@]5(CC)C=CCN6CC[C@]43[C@@H]65)C2)C1
T/C (dose: 0.03 mg/kg/injection, schedule: Q01DX009 (ip), vehicle: saline): 145 % of control | T/C (dose: 0.03 mg/kg/injection, schedule: Q01DX017 (ip), vehicle: saline): 131 % of control | T/C (dose: 0.05 mg/kg/injection, schedule: Q01DX009 (ip), vehicle: saline): 126 and 148 % of control | T/C (dose: 0.06 mg/kg/injection, schedule: Q01DX009 (ip), vehicle: saline): 145 % of control | T/C (dose: 0.06 mg/kg/injection, schedule: Q01DX009 (ip), vehicle: water): 135 % of control | T/C (dose: 0.07 mg/kg/injection, schedule: Q01DX009 (ip), vehicle: saline): 138 % of control | T/C (dose: 0.08 mg/kg/injection, schedule: Q01DX009 (ip), vehicle: water): 137 % of control [9 of 10 alive] | T/C (dose: 0.1 mg/kg/injection, schedule: Q01DX009 (ip), vehicle: saline): 143 and 146 % of control | T/C (dose: 0.12 mg/kg/injection, schedule: Q01DX009 (ip), vehicle: saline): 143 % of control | T/C (dose: 0.13 mg/kg/injection, schedule: Q01DX009 (ip), vehicle: saline, evaluated on day 5): 160 % of control | T/C (dose: 0.13 mg/kg/injection, schedule: Q01DX009 (ip), vehicle: saline, evaluated on day 60): 134, 140, 150, 165 % of control | T/C (dose: 0.13 mg/kg/injection, schedule: Q01DX009 (ip), vehicle: saline, evaluated on day 90): 160 % of control | T/C (dose: 0.13 mg/kg/injection, schedule: Q01DX009 (ip), vehicle: water, evaluated on day 45): 163 % of control | T/C (dose: 0.13 mg/kg/injection, schedule: Q01DX009 (ip), vehicle: water, evaluated on day 60): 127, 130, 147, 162 % of control | T/C (dose: 0.15 mg/kg/injection, schedule: Q04DX003 (ip), vehicle: saline): 129 % of control | T/C (dose: 0.2 mg/kg/injection, schedule: Q04DX003 (ip), vehicle: water): 134 % of control | T/C (dose: 0.22 mg/kg/injection, schedule: Q01DX009 (ip), vehicle: water): 134 and 148 % of control | T/C (dose: 0.23 mg/kg/injection, schedule: Q04DX003 (ip), vehicle: saline): 134 % of control | T/C (dose: 0.25 mg/kg/injection, schedule: Q01DX009 (ip), vehicle: saline, evaluated on day 5): 171 % of control | T/C (dose: 0.25 mg/kg/injection, schedule: Q01DX009 (ip), vehicle: saline, evaluated on day 45): 120 (2×), 147, 150, 171 % of control | T/C (dose: 0.25 mg/kg/injection, schedule: Q01DX009 (ip), vehicle: saline, evaluated on day 60): 105, 110 (2×), 111, 115 [5 of 6 alive], 116, 121, 130, 140, 145, 150 (2×), 150 [5 of 6 alive] (2×), 152, 154, 156, 158, 161, 167, 168, 170 (3×), 171, 176 [5 of 6 alive], 182, 200, 212 % of control | T/C (dose: 0.25 mg/kg/injection, schedule: Q01DX009 (ip), vehicle: saline, evaluated on day 90): 171 % of control [9 of 10 alive] | T/C (dose: 0.25 mg/kg/injection, schedule: Q01DX009 (ip), vehicle: water): 141 % of control | T/C (dose: 0.25 mg/kg/injection, schedule: Q04DX003 (ip), vehicle: saline): 127, 129, 135 % of control | T/C (dose: 0.25 mg/kg/injection, schedule: Q04DX005 (ip), vehicle: saline): 145 % of control | T/C (dose: 0.3 mg/kg/injection, schedule: Q04DX003 (ip), vehicle: saline): 149 % of control | survivor count (dose: 0.36 mg/kg/injection, schedule: Q01DX009 (ip), vehicle: water): 10 of 10 | T/C (dose: 0.36 mg/kg/injection, schedule: Q04DX003 (ip), vehicle: saline): 147 % of control | T/C (dose: 0.38 mg/kg/injection, schedule: Q04DX003 (ip), vehicle: saline): 133 % of control | T/C (dose: 0.39 mg/kg/injection, schedule: Q04DX003 (ip), vehicle: water): 131 % of control | T/C (dose: 0.4 mg/kg/injection, schedule: Q01DX009 (ip), vehicle: saline): 142 % of control [5 of 6 alive] | T/C (dose: 0.4 mg/kg/injection, schedule: Q04DX003 (ip), vehicle: saline): 145 % of control | T/C (dose: 0.4 mg/kg/injection, schedule: Q04DX003 (ip), vehicle: water): 147 % of control | T/C (dose: 0.5 mg/kg/injection, schedule: Q01DX005 (ip), vehicle: saline): 134 % of control | T/C (dose: 0.5 mg/kg/injection, schedule: Q01DX009 (ip), vehicle: saline, evaluated on day 5): 64 % of control | T/C (dose: 0.5 mg/kg/injection, schedule: Q01DX009 (ip), vehicle: saline, evaluated on day 45): 125 and 143 % of control | T/C (dose: 0.5 mg/kg/injection, schedule: Q01DX009 (ip), vehicle: saline, evaluated on day 60): 87, 91 [5 of 6 alive], 100 (2×), 114, 130, 134, 140, 145, 155, 165, 175, 179, 182, 194 % of control [5 of 6 alive] | survivor count (dose: 0.5 mg/kg/injection, schedule: Q01DX009 (ip), vehicle: saline): 5 of 6, 10 of 10, 6 of 6 (2×) | T/C (dose: 0.5 mg/kg/injection, schedule: Q04DX003 (ip), vehicle: saline): 132 and 141 % of control | survivor count (dose: 0.6 mg/kg/injection, schedule: Q01DX009 (ip), vehicle: water): 10 of 10 | T/C (dose: 0.65 mg/kg/injection, schedule: Q04DX003 (ip), vehicle: water): 130 and 140 % of control | survivor count (dose: 0.8 mg/kg/injection, schedule: Q01DX009 (ip), vehicle: saline): 3 of 6 and 6 of 6 | T/C (dose: 0.8 mg/kg/injection, schedule: Q04DX003 (ip), vehicle: saline): 143 % of control
